In the supplement of paper PMC3682954:
Values joined by “and” are separate entries in the source; they are usually repeats but may differ in a detail not shown here. Equal values may be shown once. Where a name gives a salt, the structure may show the parent alone. ± gives the standard deviation of the averaged measurements. The list shows a part of the results. Many values rest on one well or one pass, so single values are uncertain.

System: RAW 264.7
Experiment: cell viability (MTT) relative to vehicle control; higher = more viable cells
Details: stimulus: HMGB1 5 ug/ml, 18 h
[1] = compound concentration: 1 ug/ml

| SMILES | cell viability (compound concentration: 3 uM) | cell viability [1] [%] |
| --- | --- | --- |
| CC(C)C1CNC(C(=O)O)C1CC(=O)O (stereo unspecified) [Dihydrokainic acid] | 109% | – |
| C[C@]12CC[C@H](O)CC1=CC[C@@H]1[C@@H]2CC[C@]2(C)C(=O)CC[C@@H]12 | 113% and 99.6% | – |
| C[C@]12CC[C@H](O)CC1=CC[C@@H]1[C@@H]2CC[C@]2(C)C(=O)CC[C@@H]12 [Dehydroepiandrosterone] | 99% | – |
| CN1C(=O)CN=C(c2ccccc2)c2cc(Cl)ccc21 [Diazepam] | 93.3% | – |
| Cc1cc([C@@H]2CCCN2C)on1 [ABT-418 hydrochloride] | 104% | – |
| C=C1C/C(=C/C)C(=O)O[C@@H]2CCN3CC=C(COC(=O)[C@]1(C)O)[C@H]23 [Seneciphylline] | – | 89.8 |
| c1ccc2c(c1)OCC(C1=NCCN1)O2 (stereo unspecified) [Idazoxan] | 112% | – |
| c1ccc2c(c1)OCC(C1=NCCN1)O2 (stereo unspecified) | 110% | – |
| c1ccc2c(c1)OCC(C1=NCCN1)O2 (stereo unspecified) [Idazoxan hydrochloride] | 94.6 ± 6.3% | – |
| CCCCCC[C@H]1C(=O)O[C@H](C)[C@H](NC(=O)c2cccc(NC=O)c2O)C(=O)O[C@@H](C)[C@@H]1OC(=O)CC(C)C [Antimycin A] | 77.2% | – |
| CCCN(CCC)[C@H]1CCc2c(F)ccc(O)c2C1 [S(-)-UH-301 hydrochloride] | 108% | – |
| CC[N+]1(C)CCCC(OC(=O)C(O)(c2ccccc2)c2ccccc2)C1 (stereo unspecified) | 109% | – |
| CC[N+]1(C)CCCC(OC(=O)C(O)(c2ccccc2)c2ccccc2)C1 (stereo unspecified) [Pipenzolate bromide] | 109% | – |
| C/C=C(/C)C(=O)O[C@H]1C(C)=C2[C@H]([C@@H]1OC(=O)CCCCCCC)[C@@](C)(OC(C)=O)C[C@H](OC(=O)CCC)[C@@]1(O)[C@H]2OC(=O)[C@@]1(C)O [Thapsigargin] | 13.3% | – |
| C[C@]12CC[C@@H](O)C[C@@H]1CC[C@@H]1[C@@H]2CC[C@]2(C)[C@@H](C(=O)CO)CC[C@@H]12 [3-alpha,21-Dihydroxy-5-alpha-pregnan-20-one] | 102% | – |
| CC1=C2C(=CO[C@H](C)[C@H]2C)C(O)=C(C(=O)O)C1=O | 138% | – |
| CCCN(CCC)C1CCc2cccc(O)c2C1 (racemic) [(±)-8-Hydroxy-DPAT hydrobromide] | 104% | – |
| CC(C)c1cccc(C(C)C)c1O [Propofol] | 103 ± 6.7% | – |
| CC(C)c1cccc(C(C)C)c1O | 108% | – |
| C[C@]12CC[C@H](O)C[C@H]1CC[C@@H]1[C@@H]2CC[C@]2(C)[C@@H](C3=CC(=O)OC3)CC[C@]12O [Digitoxigenin] | 115% | – |
| CCCCCCCCCOc1ccc2[nH]cc(CCN)c2c1 [5-Nonyloxytryptamine] | 99.6% | – |
| C[C@]1(C(=O)O)CCC[C@]2(C)c3cc(O)ccc3CC[C@@H]12 [Podocarpic acid] | – | 92.5 |
| CCCN1CCC[C@@H]2Cc3n[nH]cc3C[C@H]21 | 109% | – |
| CCCN1CCC[C@@H]2Cc3n[nH]cc3C[C@H]21 (racemic) [(±)-Quinpirole dihydrochloride] | 102% | – |
| CCCN1CCC[C@@H]2Cc3n[nH]cc3C[C@H]21 [(-)-Quinpirole hydrochloride] | 102% | – |
| C=C(C)CN1CC[C@]23c4c5ccc(O)c4O[C@H]2c2[nH]c4ccccc4c2C[C@@]3(O)C1C5 | 104% | – |

Given comma-delimited: entries from further up
SMILES,cell viability (compound concentration: 3 uM),cell viability [1] [%]
C[C@]1(C(=O)O)CCC[C@]2(C)c3cc(O)ccc3CC[C@@H]12 [Podocarpic acid],–,92.5
CCCN1CCC[C@@H]2Cc3n[nH]cc3C[C@H]21,109%,–
CCCN1CCC[C@@H]2Cc3n[nH]cc3C[C@H]21 (racemic) [(±)-Quinpirole dihydrochloride],102%,–

(continued)

| SMILES | cell viability (compound concentration: 3 uM) | cell viability [1] [%] |
| --- | --- | --- |
| CC(=O)O[C@H]1CC[C@@]2(C)C(=CC[C@@H]3[C@@H]2CC[C@]2(C)C(=O)CC[C@@H]32)C1 | 114% | – |
| CC(=O)O[C@H]1CC[C@@]2(C)C(=CC[C@@H]3[C@@H]2CC[C@]2(C)C(=O)CC[C@@H]32)C1 [Dehydroisoandosterone 3-acetate] | 97.4% | – |
| O=C(NCNC(=O)NC1C(=O)NC(=O)N1CO)NC1C(=O)NC(=O)N1CO (stereo unspecified) [Imidurea] | 90.1% | – |
| CN1C[C@H](CNC(=O)OCc2ccccc2)C[C@@H]2c3cccc4c3c(cn4C)C[C@H]21 [Metergoline] | 101 ± 11% | – |
| CN1C[C@H](CNC(=O)OCc2ccccc2)C[C@@H]2c3cccc4c3c(cn4C)C[C@H]21 | 103% | – |
| NNc1ccn([C@@H]2O[C@H](CO)[C@@H](O)[C@H]2O)c(=O)n1 [N4-Aminocytidine] | – | 95 |
| O=C(O)CC[N+](=O)[O-] [BOVINOCIDIN (3-nitropropionic acid)] | 121% | – |
| O=C(O)CC[N+](=O)[O-] [3-Nitropropionic acid] | 108% | – |
| Oc1ccc2c3c1O[C@H]1[C@@H](O)CC[C@@]4(O)[C@@H](C2)N(CC2CCC2)CC[C@]314 [Nalbuphine hydrochloride] | 99.6% | – |
| Oc1ccc2c3c1O[C@H]1[C@@H](O)CC[C@@]4(O)[C@@H](C2)N(CC2CCC2)CC[C@]314 | 112% | – |
| Oc1ccc2c3c1O[C@H]1[C@@H](O)CC[C@@]4(O)[C@@H](C2)N(CC2CCC2)CC[C@]314 [Nalbuphine] | 103 ± 15% | – |
| OCc1cnc[nH]1 [4-Imidazolemethanol hydrochloride] | 108% | – |
| COc1cc2c(cc1OC)C13CCN4CC5=CCOC6CC(=O)N2C1C6C5CC43 (stereo unspecified) | – | 82 |
| CC[C@@H](C)C(=O)O[C@H]1[C@H](O)[C@H]2[C@@H](CN3C[C@@H](C)CC[C@H]3[C@@]2(C)O)[C@@H]2C[C@]34O[C@]5(O)[C@@H](OC(=O)[C@@](C)(O)CC)CC[C@@]3(C)[C@@H]5[C@@H](OC(C)=O)[C@@H](OC(C)=O)[C@H]4[C@@]21O | 108% | – |
| NCC1(CC(=O)O)CCCCC1 [Gabapentin] | 95.8 ± 12% | – |
| NCC1(CC(=O)O)CCCCC1 | 97.4% | – |
| O=c1cccc2n1C[C@@H]1CNC[C@H]2C1 [Cytisine] | – | 99.2 |
| O=c1cccc2n1C[C@@H]1CNC[C@H]2C1 | 108% | – |
| CC(N)C(O)c1ccccc1 (stereo unspecified) [Phenylpropanolamine hydrochloride] | 104% | – |
| CC(N)C(O)c1ccccc1 (stereo unspecified) | 111% | – |
| CC(N)C(O)c1ccccc1 (stereo unspecified) [Phenylpropanolamine] | 99.5% | – |
| CC1=CCCC2C1(C)CCC(C)C2(C)CC/C(C)=C/Cn1c[n+](C)c2c(N)ncnc21 (stereo unspecified) [AGELASINE (stereochemistry of diterpene unknown)] | 107% | – |
| O=C(CCCN1CCC2(CC1)C(=O)NCN2c1ccccc1)c1ccc(F)cc1 [Spiperone] | 111 ± 10% | – |
| O=C(CCCN1CCC2(CC1)C(=O)NCN2c1ccccc1)c1ccc(F)cc1 | 112% | – |
| O=C(CCCN1CCC2(CC1)C(=O)NCN2c1ccccc1)c1ccc(F)cc1 [Spiperone hydrochloride] | 120% | – |
